From PubChem BioAssay AID588590 (National Center for Advancing Translational Sciences (NCATS), 2011)
Among all 390,000 compounds or so, about 4,000 (1%) were called active. Inconclusive means that the source gave no clear call. Such entries were picked first, then a sample of the others. Calls come from the whole dose curve; as a rule, active = well fitted inhibition curve with a large enough effect; inconclusive = small, poorly fitted or top-dose-only effect, or another doubt; inactive = no such curve, though single readings can be large or run the other way. A potency beside an inconclusive call is a rough fit, not a confirmed value.

Sequences of proteins named here, by UniProt entry; tags and fusion partners are left off. A change or cut given only in a name is not applied to a line headed by its entry.
UniProt Q9UNA4: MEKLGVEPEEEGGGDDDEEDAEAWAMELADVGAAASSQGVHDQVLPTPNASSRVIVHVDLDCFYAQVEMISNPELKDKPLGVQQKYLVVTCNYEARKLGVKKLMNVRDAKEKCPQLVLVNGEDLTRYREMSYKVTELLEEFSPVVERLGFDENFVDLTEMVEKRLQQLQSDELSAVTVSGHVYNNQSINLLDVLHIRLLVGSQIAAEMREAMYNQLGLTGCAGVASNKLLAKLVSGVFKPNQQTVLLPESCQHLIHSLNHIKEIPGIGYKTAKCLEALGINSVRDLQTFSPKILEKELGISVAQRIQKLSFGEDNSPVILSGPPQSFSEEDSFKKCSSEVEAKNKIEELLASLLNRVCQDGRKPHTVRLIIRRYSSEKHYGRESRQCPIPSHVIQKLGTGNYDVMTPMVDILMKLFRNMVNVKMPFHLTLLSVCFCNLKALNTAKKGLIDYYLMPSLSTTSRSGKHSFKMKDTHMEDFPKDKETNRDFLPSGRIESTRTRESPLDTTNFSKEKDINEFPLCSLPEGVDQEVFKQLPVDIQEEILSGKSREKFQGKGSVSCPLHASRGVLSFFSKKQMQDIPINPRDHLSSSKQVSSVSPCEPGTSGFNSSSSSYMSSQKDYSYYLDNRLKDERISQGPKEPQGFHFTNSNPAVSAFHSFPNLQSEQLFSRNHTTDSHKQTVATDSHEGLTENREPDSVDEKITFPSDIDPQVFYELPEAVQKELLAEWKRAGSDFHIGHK

biological target: DNA polymerase iota (Homo sapiens) (UniProt Q9UNA4); assay: qHTS for Inhibitors of Polymerase Iota; conditions: Pol iota fluorescent replication assay, 10 min; series mostly up to 115 µM
In short: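 Pol iota at 10 nM preincubated 15 min with compounds at room temperature; reaction started with fluorescent substrate, 50 nM final. Fluorescence read kinetically at 0 and 10 min; buffer-only wells as negative control.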
Potency is the fitted concentration of half-maximal effect.

| Compound | Potency |
| --- | --- |
| CCOC(=O)c1ccc(NC2=CC(c3ccc(O)c(OCC)c3)N(c3ccc(C(=O)OCC)cc3)C2=O)cc1 (centres undefined) | inactive |
| COc1ccccc1NC(=O)Cn1c(=O)n(CCc2ccccc2)c(=O)c2c3c(sc21)CN(C(C)=O)CC3 | inactive |
| CCn1c(SCC(=O)Nc2ccc3c(c2)OCO3)nnc1-c1cnccn1 | inconclusive: 89.1 µM [inhibitor, partial curve, poor fit] |
| CC(=O)C(C(C)=O)C(NC(=O)c1cccnc1)(C(F)(F)F)C(F)(F)F | inactive |
| O=C(CSC1=NS(=O)(=O)c2cc(Cl)ccc2N1)NCc1ccccc1 | inconclusive: 89.1 µM [inhibitor, single point] |
| COc1cc(NC(=O)COc2ccc(-n3cnnn3)cc2)c(OC)cc1Cl | inactive |
| Cc1ccc(Cn2cc(/C=C(/C#N)C(=O)Nc3cccc(Cl)c3)c3ccccc32)cc1 | inactive |
| CC(=O)c1ccccc1OCC(=O)Nc1cccc(S(=O)(=O)N2CCCC2)c1 | inconclusive: 1.41 µM [inhibitor, partial curve, poor fit] |
| CCCN(C)CCCOc1cc2nc(N3CCCN(C)CC3)nc(NC3CCN(C)CC3)c2cc1OC | inconclusive: 50.1 µM [inhibitor, partial curve, poor fit] |
| Cc1nc(NC(=O)c2cccc(Cl)c2)sc1C(=O)N1CCCCC1 | inactive |
| CC/C(=C/c1sc2ccc(C)cc2[n+]1CCCS(=O)(=O)[O-])SC | inconclusive: 25.1 µM [inhibitor, single point] |
| Cn1cnnc1SCc1ccc(C(=O)N/N=C/c2cccs2)cc1 | inconclusive: 15.8 µM [inhibitor, full curve, poor fit] |
| N#C/C(=C\c1cc(O)c(O)c(O)c1)C(N)=O | inconclusive: 1.78 µM [inhibitor, full curve, poor fit] |
| O=C(CSc1nc(=O)n2ccccc2n1)Nc1ccc2c(c1)OCCO2 | inactive |
| Cc1ccc(S(=O)(=O)CCC(=O)OCC(=O)NCCc2ccccc2)cc1 | inconclusive: 35.5 µM [inhibitor, partial curve, poor fit] |
| O=C(O)CCCCCN1C(=O)/C(=C/c2cn(-c3ccccc3)nc2-c2cccs2)SC1=S | inconclusive: 15.8 µM [inhibitor, full curve, poor fit] |
| CC(=O)c1cccc(NC(=O)CSc2ccc(-c3cccnc3)nn2)c1 | inactive |
| Cc1ccccc1OCC(O)Cn1c(NCc2ccco2)nc2c1c(=O)[nH]c(=O)n2C (centres undefined) | inconclusive: 70.8 µM [inhibitor, partial curve, poor fit] |
| CC1(C)Cc2cccc(C(=O)NCc3ccco3)c2O1 | inconclusive: 8.91 µM [inhibitor, partial curve, poor fit] |
| Cc1ccc(OCCCSc2n[nH]c(N)n2)cc1 | inconclusive: 50.1 µM [inhibitor, partial curve] |
| O=C1/C(=C\c2ccc(Br)o2)SC(=Nc2ccccc2)N1c1ccccc1 | inconclusive: 20 µM [inhibitor, full curve] |
| C=C(C)C(=O)Nc1ccc2c(c1)OCCOCCOCCO2 | inconclusive: 15.8 µM [inhibitor, full curve] |

Part of the list above, set out differently.
Compound,Potency
CCOC(=O)c1ccc(NC2=CC(c3ccc(O)c(OCC)c3)N(c3ccc(C(=O)OCC)cc3)C2=O)cc1 (centres undefined),inactive
Cc1ccc(Cn2cc(/C=C(/C#N)C(=O)Nc3cccc(Cl)c3)c3ccccc32)cc1,inactive
Cc1ccc(S(=O)(=O)CCC(=O)OCC(=O)NCCc2ccccc2)cc1,"inconclusive: 35.5 µM [inhibitor, partial curve, poor fit]"

Next results

| Compound | Potency |
| --- | --- |
| O=C(NCc1ccccn1)c1cc2ccccn2n1 | inconclusive: 11.2 µM [inhibitor, partial curve, poor fit] |
| COc1ccc(N2CC(C(=O)Nc3nnc(SCC(=O)NCc4ccco4)s3)CC2=O)cc1 (centres undefined) | inconclusive: 20 µM [inhibitor, full curve, poor fit] |
| Cc1ccccc1OCc1ccc(-c2nc(C#N)c(N3CCN(C)CC3)o2)o1 | inconclusive: 89.1 µM [inhibitor, single point] |
| O=C1/C(=C/c2cccnc2)SC(=S)N1c1ccccc1 | inactive |
| N[C@@H](Cc1ccc(O)cc1)c1nnc([C@H](CCC(=O)O)NC(=O)C2CCNCC2)o1 | inconclusive: 31.6 µM [inhibitor, partial curve, poor fit] |
| O=C/C(=C\Nc1ccccn1)c1nc2ccccc2o1 | inconclusive: 15.8 µM [inhibitor, single point] |
| Cc1ccc(OCC(=O)Nc2cc(NC(=O)COc3ccc(C)cc3)cc(C(=O)O)c2)cc1 | inconclusive: 89.1 µM [inhibitor, single point] |
| Cc1ccc(C2CC(=O)N(Cc3ccccc3)c3c2c(C)nn3-c2nc(C)cc(C)n2)cc1 (centres undefined) | inactive |
| COc1cc(NC(=O)c2cccs2)c(OC)cc1NC(=O)CCC(=O)Nc1ccc2ncccc2c1 | inconclusive: 31.6 µM [inhibitor, full curve, poor fit] |
| O=c1cc(-c2ccc(F)cc2)nc(SCc2nc(-c3cccc(Cl)c3)no2)[nH]1 | inconclusive: 89.1 µM [inhibitor, single point] |
| CC(/C=N/NC(=O)c1cc(-c2ccc3ccccc3c2)n[nH]1)=C\c1ccco1 | inconclusive: 56.2 µM [inhibitor, partial curve, poor fit] |
| N=c1c(C(=O)NCc2ccco2)cc2c(=O)n3ccccc3nc2n1CCc1ccccc1 | inconclusive: 10 µM [inhibitor, full curve, poor fit] |
| CCC1(CC)C(=O)C2=C3C1[C@H](C(=O)OC)CC(C(=O)OC)C[C@H]3n1c(=O)n(C)c(=O)n1[C@H]2C (some centres undefined) | inconclusive: 100 µM [inhibitor, partial curve, poor fit] |
| COc1ccc(C(=O)C2CCCN(Cc3nc4ccccc4nc3C)C2)cc1OC (centres undefined) | inconclusive: 89.1 µM [inhibitor, single point] |
| Cc1ccc2c(=O)cc(C(=O)Nc3sc4c(c3C(N)=O)CCCC4)oc2c1 | inactive |
| O=C(N/N=C1/CCc2ccccc21)C1CC1 | inactive |
| CCCN1C(=O)c2ccccc2NC1c1ccc(OC)cc1OC (centres undefined) | inconclusive: 79.4 µM [inhibitor, full curve] |
| CCN(C(=O)COC(=O)c1ccc2ccccc2c1)c1c(N)n(Cc2ccccc2)c(=O)[nH]c1=O | inconclusive: 31.6 µM [inhibitor, partial curve] |
| Cc1cc2nc(-c3ccc(OCc4ccc(F)cc4)cc3)cc(C(F)(F)F)n2n1 | inactive |
| Cc1nc2sc(C(=O)Nc3ccc(F)cc3)c(N)c2c(-c2ccc(Br)cc2)c1C(=O)Nc1ccc(Cl)cc1 | inactive |
| COc1ccc(N2CCN(S(=O)(=O)c3ccc(OC)c(-c4noc(C)n4)c3)CC2)cc1 | inactive |
| N#CC1=C(N)Oc2nc(-c3ccccc3)[nH]c2C1c1cccnc1 (centres undefined) | inconclusive: 31.6 µM [inhibitor, partial curve, poor fit] |

| Compound | Potency |
| --- | --- |
| CCC(CO)Oc1cc(NCc2ccccc2)c2ncn(C3CCCC3)c2c1 (centres undefined) | inconclusive: 10 µM [inhibitor, partial curve, poor fit] |
| O=C(c1cccc(-c2ccc(O)cc2)c1)N1CCOCC1 | inconclusive: 39.8 µM [inhibitor, partial curve, poor fit] |
| COc1ccc2c(c1OC)C(=O)N(c1ccc(C)c(C)c1)C2=O | inconclusive: 1 µM [inhibitor, full curve, poor fit] |
| CC12CCC(C(=O)Nc3ncc([N+](=O)[O-])s3)(OC1=O)C2(C)C (centres undefined) | inconclusive: 56.2 µM [inhibitor, partial curve, poor fit] |
| CCN(CCO)c1ccc(-n2c(N)c(C(=O)OC)c3nc4ccccc4nc32)cc1 | inconclusive: 25.1 µM [inhibitor, partial curve, poor fit] |
| Cc1c(Cl)sn(-c2ccc(Cl)cc2)c1=O | inactive |
| CC(C)(C)c1csc(NC(=O)CSc2nc3ccccc3c(=O)[nH]2)n1 | inconclusive: 39.8 µM [inhibitor, single point] |
| COC(=O)/C(=C\C(=O)c1ccccc1)Nc1cccc(C(F)(F)F)c1 | inconclusive: 22.4 µM [inhibitor, single point] |
| COc1cc(NC(=S)N2CCCCC2C)c(OC)cc1Cl (centres undefined) | inconclusive: 11.2 µM [inhibitor, partial curve, poor fit] |
| CN(C)CCC(=O)c1ccc2c(c1)OCO2 | inconclusive: 12.6 µM [inhibitor, partial curve] |
| CC1Cc2ccccc2N1Cc1cc(=O)n2ccsc2n1 (centres undefined) | inconclusive: 7.94 µM [inhibitor, single point] |
| CC(C(=O)O)n1nc(-c2ccccc2)c2ccccc21 (centres undefined) | inconclusive: 44.7 µM [inhibitor, partial curve, poor fit] |
| CN(C)c1ccc(C(=O)c2ccc(O)cc2O)cc1 | inactive |
| CCc1ccc(NC(=O)CC2C(=O)N(c3ccc(Cl)cc3)C(=O)N2Cc2cccs2)cc1 (centres undefined) | inactive |
| CCN(CC)CCn1nc2c3c(cccc3c1=O)-c1ccccc1-2 | inconclusive: 25.1 µM [inhibitor, full curve, poor fit] |
| COc1ccc(N(CC(=O)NCc2ccccc2OC)S(=O)(=O)c2ccc(C)cc2)cc1Cl | inconclusive: 79.4 µM [inhibitor, single point] |
| CCN1C(=O)[C@H]2[C@@H](c3ccc(-c4ccc(OC)cc4)c(OC)c3)N[C@@](C)(C(=O)OC)[C@H]2C1=O | inconclusive: 10 µM [inhibitor, partial curve, poor fit] |
| CS(=O)(=O)N(CC(=O)N1CCCCCC1)c1ccc2c(c1)OCCO2 | inconclusive: 100 µM [inhibitor, partial curve, poor fit] |
| COc1cc(/C=C(/C#N)C(=O)NCCCc2ccccc2)ccc1OCC(=O)O | inconclusive: 39.8 µM [inhibitor, single point] |
| CC(Oc1ccc(F)cc1)C(=O)Nc1cc(-c2ccc(F)c(F)c2)no1 (centres undefined) | inactive |

2 entries picked at random from the list so far, as already listed:

| Compound | Potency |
| --- | --- |
| CC(Oc1ccc(F)cc1)C(=O)Nc1cc(-c2ccc(F)c(F)c2)no1 (centres undefined) | inactive |
| CCC(CO)Oc1cc(NCc2ccccc2)c2ncn(C3CCCC3)c2c1 (centres undefined) | inconclusive: 10 µM [inhibitor, partial curve, poor fit] |
